From patent publication US7993681B2, “Methods, compositions and devices for inducing stasis in tissues and organs” (Fred Hutchinson Cancer Research Center, priority 2003, dated 2011)
For at least one compound, name, drawing or mass did not settle the structure.

Test system: mice
Assay: H2S protects mice from hypoxia
Type: in vivo, mouse

S [H2S, Hydrogen sulfide]
condition after hypoxia (3 weeks after 11 minutes of 5.2% oxygen): still doing well | condition after recovery (24 hours after 4% oxygen): viable and normally responsive | viability in hypoxia (oxygen tension reduced to 4%, up to an hour, H2S retained until 21% O2): remain viable | survival of hypoxia (pre-equilibrated 3 hours at 80 ppm, then 11 minutes of 5.2% oxygen): survived
